# Measurements: patent publication US20250154171A1, “RAS INHIBITORS” (Revolution Medicines, Inc., priority 2023, published 2025)
# Protein sequences, listed by entry. Tags and fused reporters are not part of them. Lines headed by an entry give the natural chain unless they say otherwise; changes in a name come on top. Residues count along the entry.
# UniProt P01116, 1-188 isoform P01116-2 G12V: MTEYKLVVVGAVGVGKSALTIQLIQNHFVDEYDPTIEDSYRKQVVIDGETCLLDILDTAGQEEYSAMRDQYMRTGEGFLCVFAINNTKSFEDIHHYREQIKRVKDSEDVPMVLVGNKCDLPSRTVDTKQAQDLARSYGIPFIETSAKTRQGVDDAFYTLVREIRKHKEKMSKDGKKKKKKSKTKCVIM
# UniProt P62937, whole entry: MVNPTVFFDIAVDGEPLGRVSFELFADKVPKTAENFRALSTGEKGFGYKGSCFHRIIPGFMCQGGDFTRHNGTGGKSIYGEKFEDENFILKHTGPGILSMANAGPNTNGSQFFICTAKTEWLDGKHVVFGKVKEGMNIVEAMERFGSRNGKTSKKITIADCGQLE
# Some of these results come from one statement about several compounds together.
# Assays:
# [1] = tested on: Capan-1 (K-Ras G12V); assay: CellTiter-Glo cell viability assay, Capan-1; assay type: cell-based, human; conditions: 5-day treatment, Capan-1 versus A375
# [2] = molecular target: K-RasG12V (Homo sapiens, UniProt P01116+P62937, G12V); assay: Disruption of BRAF RBD interaction with K-Ras (TR-FRET / MOA assay), K-RasG12V; assay type: biochemical; conditions: TR-FRET with cyclophilin A and GST-BRAF RBD, read-out: IC50 with respect to K-RasG12V (disruption of BRAF RBD interaction)
compound,measurement,setting,value
CO[C@@H](C)c1ncc(N2CCN(C3CC3)CC2)cc1-c1c2c3cc(ccc3n1CCOC1CCOCC1)-c1coc(n1)[C@@H](N1CCCC1)[C@H](NC(=O)C13CC(C1)C(C)O3)C(=O)N1CCC[C@H](N1)C(=O)OCC(C)(C)C2 (mixture of isomers) [Example A458],decrease in cell viability with respect to KRAS G12V (Capan-1) versus wild-type KRAS (A375),[1],greater decrease in cell viability
same,IC50,[2],< 1 µM
CO[C@@H](C)c1ncc(N2CCN(C3CC3)CC2)cc1-c1c2c3cc(ccc3n1CCOC1CCOCC1)-c1csc(n1)[C@@H](N1CC[C@@H](C#N)C1)[C@H](NC(=O)N1CC[C@H]1C)C(=O)N1N[C@H](C(=O)OCC(C)(C)C2)C2CC1C2 (racemic) [Example A459],decrease in cell viability with respect to KRAS G12V (Capan-1) versus wild-type KRAS (A375),[1],greater decrease in cell viability
same,IC50,[2],< 1 µM
CO[C@@H](C)c1ncc(N2CCN(C3CC3)CC2)cc1-c1c2c3cc(ccc3n1CCOC1CCOCC1)-c1csc(n1)[C@@H](N1CC(F)(F)C1)[C@H](NC(=O)C13CC(C1)C(C)O3)C(=O)N1CCC[C@H](N1)C(=O)OCC(C)(C)C2 (mixture of isomers) [Example A460],decrease in cell viability with respect to KRAS G12V (Capan-1) versus wild-type KRAS (A375),[1],greater decrease in cell viability
same,IC50,[2],< 1 µM
CO[C@@H](C)c1ncc(N2CCN(C3CC3)CC2)cc1-c1c2c3cc(ccc3n1CCOC1CCOCC1)-c1csc(n1)[C@@H](N1CCC3(COC3)C1)[C@H](NC(=O)[C@H]1[C@H](C)[C@@H]1C)C(=O)N1CCC[C@H](N1)C(=O)OCC(C)(C)C2 (racemic) [Example A461],decrease in cell viability with respect to KRAS G12V (Capan-1) versus wild-type KRAS (A375),[1],greater decrease in cell viability
same,IC50,[2],< 1 µM
CCn1c(-c2cccnc2[C@H](C)OC)c2c3cc(ccc31)-c1csc(n1)[C@@H](N1CC3(COC3)C1)[C@H](NC(=O)C13CC(C1)C(C)O3)C(=O)N1CCC[C@H](N1)C(=O)OCC(C)(C)C2 (mixture of isomers) [Example A462],decrease in cell viability with respect to KRAS G12V (Capan-1) versus wild-type KRAS (A375),[1],greater decrease in cell viability
same,IC50,[2],< 1 µM
CO[C@@H](C)c1ncc(N2CCN(C3CC3)CC2)cc1-c1c2c3cc(ccc3n1CCOC1CCOCC1)-c1csc(n1)[C@@H](N1CCCC1)[C@H](NC(=O)[C@@H]1[C@@H](C)[C@H]1c1ccccn1)C(=O)N1CC3CC(C3)(N1)C(=O)OCC(C)(C)C2 (racemic) [Example A463],decrease in cell viability with respect to KRAS G12V (Capan-1) versus wild-type KRAS (A375),[1],greater decrease in cell viability
same,IC50,[2],< 1 µM
CCO[C@@H]1c2nc(cs2)-c2ccc3c(c2)c(c(-c2cc(N4CCN(C5CC5)CC4)cnc2[C@H](C)OC)n3CCOC2CCOCC2)CC(C)(C)COC(=O)C23CC(CN(N2)C(=O)[C@H]1NC(=O)N1CC[C@H]1C)C3 (racemic) [Example A464],decrease in cell viability with respect to KRAS G12V (Capan-1) versus wild-type KRAS (A375),[1],greater decrease in cell viability
same,IC50,[2],< 1 µM
CO[C@@H](C)c1ncc(N2CCN(C3CC3)CC2)cc1-c1c2c3cc(ccc3n1CCOC1CCOCC1)-c1csc(n1)[C@@H](N1CCCC1)[C@H](NC(=O)N1CC[C@H]1C)C(=O)N1CC3CC(C3)(N1)C(=O)OCC(C)(C)C2 (racemic) [Example A465],decrease in cell viability with respect to KRAS G12V (Capan-1) versus wild-type KRAS (A375),[1],greater decrease in cell viability
same,IC50,[2],< 1 µM
CO[C@@H](C)c1ncc(N2CCN(C3CC3)CC2)cc1-c1c2c3cc(ccc3n1CCOC1CCOCC1)-c1csc(n1)[C@@H](N1CCCC1)[C@H](NC(=O)[C@H]1[C@H](C)[C@@H]1[C@H]1CCCO1)C(=O)N1CC3CC(C3)(N1)C(=O)OCC(C)(C)C2 (racemic) [Example A466],decrease in cell viability with respect to KRAS G12V (Capan-1) versus wild-type KRAS (A375),[1],greater decrease in cell viability
same,IC50,[2],< 1 µM
CO[C@@H](C)c1ncc(N2CCN(C3CC3)CC2)cc1-c1c2c3cc(ccc3n1CCOC1CCOCC1)-c1csc(n1)[C@@H](N1CCCC1)[C@H](NC(=O)[C@@H]1[C@@H](C)[C@H]1[C@H]1CCCO1)C(=O)N1CC3CC(C3)(N1)C(=O)OCC(C)(C)C2 (racemic) [Example A467],decrease in cell viability with respect to KRAS G12V (Capan-1) versus wild-type KRAS (A375),[1],greater decrease in cell viability
same,IC50,[2],< 1 µM
